Experimental findings from patent US20050069542A1 (Human Genome Sciences, published 2005) are described below.

By UniProt entry, the sequences of proteins in these tests, tags left out. Where a name states a change or a piece, a line headed by the entry shows the natural chain unless it says otherwise.
UniProt Q9HD89: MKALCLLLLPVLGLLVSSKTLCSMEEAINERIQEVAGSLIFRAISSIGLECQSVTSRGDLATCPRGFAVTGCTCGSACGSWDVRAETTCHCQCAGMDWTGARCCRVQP

No constants are given. Whether binding was seen depends on the method and setting. Some binding calls cover weakened binding; strength is not graded here.

Assay [1] deals with Flag-tagged recombinant human GMAD (human) (UniProt Q9HD89). Description: phage ELISA.
For assay [2] the target is unchanged. Description: phage display selection of scFvs.

B1: GMCC131 (scFv)
scFv: QVQLQESGPGLVKPSETLSLTCSVSGGSIRSHYWSWMRQPPGKGLEWIGYVYYTGSTNYNPSLKSRVTMSVDTSKNQFSLNLSSVTAADTAIYYCARFPYSSGSNPLDYWGRGTLVTVSSGGGGSGGGGSGGGGSAQSVLTQPPSVSAAPGQRVTISCTGSSSNIGARYDVHWYQHLPGTAPKLLIYGDSNRPSGVPDRFSGSKSGTSASLAITGLQPEDEADYYCQSYDSSLSGVVFGGGTKVTVLG
Regarding B1, the binding entry in assay [1] and in assay [2] was “binds” each time.

B2: GMCC124 (scFv)
scFv: QVTLKESGAEVKKPGASVKVSCKASGYTFTDNALHWVRQAPGQRPEWMAWINTANGNTRYSQKFQGRLTITRDTSASTAFMDLSSLRSEDTAVYYCARQKAYKNYYYYYGMDVWGQGTLVTVSSGGGGSGGGGSGGGGSAQSVVTQPPSVSAAPGQKVTISCSGSSSNIGNNYVSWYQQLPGTAPKLLIYENNKRPSGIPDRFSGSQSGTSATLGISGLQTGDEADYYCGTWDSSLRAGVFGGGTKLTVLG
For the molecule B2, the binding entry in assay [1] and in assay [2] was “binds” each time.

B3: GMCC125 (scFv)
scFv: EVQLVQSGGGLVKPGGSLRLSCAASGFSFSDYSMHWIRQAPGKGLEWLSHIGTSTSYTNYADSVKGRFTISRDNAKNSFYLQMNSLRVDDTAVYFCARGFGGLRGYFDYWGQGTLVTVSSGGGGSGGGGSGGGGSALSSELTQDPAVSVALGQTVKITCQGDRLRRFYASWYQQKPGQAPLLLIYGKNSRPSGIPDRFSGSTSGATASLTITGAQAEDEADYYCNSRDSSGSLHSVFGTGTKVTVLG
As for B3, the binding entry in assay [1] and in assay [2] was “binds” each time.

B4: GMCC114 (scFv)
scFv: EVQLVESGPEVKKPGSSVKVSCKASGAAAFSSYAISWVRQAPGRGLEWMGGIIPISDTPKYAHKFQGRVTITADESTTTVFMEVSGLRSDDTAVYYCATTTRYGSGTYDYMDVWGQGTMVTVSSGGGGSGGGGSGGGGSALSSELTQDPAVSVALGQTVRITCQGDSLRSYYASWYQQKPGQAPVLVFYGKNKRPSGIPDRFSGSTSGNTASLSITGALADDEADYYCHSRDTSGAQILFGGGTKLTVLG
As for B4, the binding result in assay [1] and in assay [2] was “binds” in each case.

B5: GMCC138 (scFv)
scFv: EVQLVETGPGLVKPSQTLSLTCTVSGGSISSGGYYWSWIRQVPGKGLEWIGYNFYNGSTYFNPSLKSRATISIDTTKNQFSLKLSSVTAADTAVYYCARGNGYRYGRWFDPWGRGTLVTVSSGGGGSGGGGSGGGGSALSYELTQPPSVSVSPGQTARITCSGDALPKQYAYWYQQKPGQAPVLVISKDSERPSGIPERFSGSSSGTTVTLTISGVQAEDEADYYCQSADSSGTYWVFGGGTKVTVLG
Take B5: the binding result in assay [1] and in assay [2] was “binds” in each case.

B6: GMCC129 (scFv)
scFv: EVQLVETGGGLAQPGGSLRLSCEASGFTFNNYAMSWVRQAPGKGLEWVSGISISGYSTFYTDSVQGRFTISRDNSKNTLYLQMNSLGVDDTAVYYCAKRRGEGGDFDYWGRGTMVTVSSGGGGSGGGGSGGGGSALSSELTQDPAVSVALGQTVRITCQGDSLRGYYASWYQQKAGQAPVLVIYGKNNRPSGIPDRFSGSSSGNTASLTITGAQAEDEADYYCYSRDRSGNHLGMFGGGTKVTVLG
Take B6: the binding entry in assay [1] and in assay [2] was “binds” in each case.

B7: GMCC112 (scFv)
scFv: QVQLVQSGGGLVQPGGSLRLSCAASGFSFSTYAMSWVRQAPGKGLEWVSGVSDGGDTFYADSVRGRFTLSRDNAKNTLFLQMNSLTAEDTATYYCAKEIARIGVPNFDHWGQGTLVTVSSGGGGSGGGGSGGGGSALETTLTQSPGTLSLSPGDRATLSCRASQSIRNNDVAWYQQKPGQAPRLLIYSASRRATDIPDRFSGSASGTDFTLTISRLEPEDFAMYYCQQYGGSASFGQGTRLEIKR
B7: the binding entry in assay [1] and in assay [2] was “binds” throughout.

B8: GMBC604 (scFv)
scFv: EVQLVQSGAEVKKPGESLRISCKGSGYTFTNYWINWVRQVPGKGLEWMGMIDPTDSYAKYSPSFQGHVTISTDKSVSTAYLQWRSLQASDSAIYYCVRGYSYDLDYWGKGTLVTVSSGGGGSGGGGSGGGGSQSVLTQPASVSGSPGQSITISCTGTSSDVGGYNYVSWYQQHPGKAPKLMIYEGSKRPSGVSNRFSGSKSGNTASLTISGLQAEDEADYYCSSYTTRSTRVFGGGTKLTVLG
On to B8, for which the binding entry in assay [1] and in assay [2] was “binds” in each case.

B9: GMCC142 (scFv)
scFv: EVQLVQSGAEVKKPGASVTISCKASGYTFTAYYIYWVRQAPGQGLEWMGMSNPNGGYTVYPPNFLGRVTTTPDTSTNTIYMELRSLRSEDTAVYYCARGRGRAPSNAFDFWGRGTLVTVSSGGGGSGGGGSGGGGSALSSELTQDPAVSVALGQTVRITCQGDSLKFYYASWYQQKPGQAPVLVLHGKNNRPSGIPDRFSGSTSRDTASLTITGTQAEDEADYYCNSRDNSDNIVFGTGTKLTVLG
In the case of B9, the binding entry in assay [1] and in assay [2] was “binds” throughout.

B10: GMCC118 (scFv)
scFv: EVQLVQSGGGLVKPGGSLRLSCTASGFSFTNAWMSWVRQAPGKGLEWVGRIKSRNDGGATDYAAPVKGRFTISRDDSKNTLYLQMNSLKTDDTAVYYCTTDNFPLRFLEWLSHPDYWGQGTMVTVSSGGGGSGGGGSGGGGSAQAVLTQPSSVSVSPGQTVTITCSGEKLDNKYISWYQQRPGRSPILVIYQDRKRPSGIPERFSGSNSGNTATLTITGSQPLDEADYYCQAWDSSTAWEFGGGTKLTVLG
Take B10: the binding entry in assay [1] and in assay [2] was “binds” in each case.

B11: GMCC127 (scFv)
scFv: QVQLVQSGGGVVRPGGSLRLSCAASGFTFDDYGMSWVRQAPGKGLEWVSGINWNGGSTGYADSVKGRFTISRDNAKNSLYLQMNSLRAEDTAVYYCARRRYALDYWGRGTLVTVSSGGGGSGGGGSGGGGSALSSELTQDPAVSVALGQAVRITCQGDSLRTNYASWYQQRPGQAPVLVIRGNNNRPSGIPDRFSGSNSGDTVSLTITGAQAEDEADYYCNSRDTSGYHYVFGTGTKLTVLG
For B11, the binding result in assay [1] and in assay [2] was “binds” throughout.

B12: GMCC126 (scFv)
scFv: QVQLQESGPGLVKPSQTLSLSCAVSGFSVTSGHYWGWIRQSPGKGLEWIGNIYHTGSTRYNPSLESRVSMSVDTSKNQFSLRLTSVTAADTAIYYCARVGRGQHLVRGDFDYWGRGTLVTVSSGGGGSGGGGSGGGGSAQSVLTQPPSISVSPGQTASITCSGDELGHKYASWYQQKPGQSPVVVVYQDNKRPSGIPERFSGSSSGNTATLTISGTQAVDEADYFCQAWDSSAVVFGGGTKLTVLG
Regarding B12, the binding result in assay [1] and in assay [2] was “binds” in each case.

B13: GMCC119 (scFv)
scFv: EVQLVQSGPEVKKPGASVKVSCKASNYTFTTYDISWVRQAPGQGLEWMGWISTYSGNTKYAQKFQGRVTMTRDTSTSAAYMELRNLRSDDTAVYFCARDIRVWRGSGSVHYFDPWGRGTTVTVSSGGGGSGGGGSGGGGSAQSALTQPRSVSGSPGQSVTISCTGTSNDVGGYNFVSWYQQHPGKAPKLMVYNVSKRPSGVPDRFSGSKSGNTASLTISGLQAEDEADYYCSSYAHSYTLVFGGGTKVTVLG
As for B13, the binding entry in assay [1] and in assay [2] was “binds” throughout.
